# Primary screen of a compound library

Chains of the proteins cited; added tags and fusions are not shown. Residues count along the entry.
UniProt Q4DA54, 1-478: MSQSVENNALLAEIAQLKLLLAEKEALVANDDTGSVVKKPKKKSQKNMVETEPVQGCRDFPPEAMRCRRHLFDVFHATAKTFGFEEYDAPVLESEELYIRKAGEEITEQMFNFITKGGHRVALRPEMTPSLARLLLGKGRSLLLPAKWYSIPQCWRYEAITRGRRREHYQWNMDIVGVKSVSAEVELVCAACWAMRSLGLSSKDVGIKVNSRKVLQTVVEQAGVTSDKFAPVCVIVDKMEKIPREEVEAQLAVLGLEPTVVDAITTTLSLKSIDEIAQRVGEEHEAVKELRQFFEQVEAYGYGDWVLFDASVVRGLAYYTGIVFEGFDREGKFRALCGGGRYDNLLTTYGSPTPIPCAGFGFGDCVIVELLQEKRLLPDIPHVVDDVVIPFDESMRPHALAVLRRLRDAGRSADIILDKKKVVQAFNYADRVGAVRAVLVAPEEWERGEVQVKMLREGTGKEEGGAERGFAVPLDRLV

The values are deposited in ChEMBL (CHEMBL3988442, “University of Dundee, Small-Polar-MMV Screening Library” (2021)).

Each number is a percent effect as filed.
The record does not define 0% and 100%; most values in the screen are far below 50% and negative numbers occur (in some assays of this library far below -100).
Compounds were drawn at random from those tested, without regard to their results.

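Histidine-tRNA ligase, Trypanosoma cruzi CL Brener (UniProt Q4DA54). Enzyme assay of histidyl-tRNA synthetase; the read-out is not stated. Compounds at 30 µM. Higher reads as stronger inhibition (inferred: compounds with an IC50 in retests scored well above the rest). Of about 69,000 compounds tested this way, about 31 (0.045%) reached 50% or more in at least one test.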

CN(C)S(=O)(=O)N1CCN(C(=O)OC(C)(C)C)CC12CCCCC2 gave 8.911%.
CC(C)(C)n1cc(NCc2cscn2)cn1 gave 11.67%.
O=C1Nc2ccccc2/C1=C1\CCCCCN1 gave 4.95%.
Cc1ccc([C@H]2CN(C(=O)CC3CCC3)C[C@@H]2N)o1 gave 17.02%.
O=C1N(c2cccnc2)CCC12CCCN(Cc1ccoc1)C2 (centres undefined) gave 12.75%.
CSc1nccn1-c1cccc(C(=O)NCC2CC2)c1 gave 4.545%.
CN1CCC(Nc2cc(Cl)ccc2OCC(F)(F)F)C1=O (centres undefined) gave 8.287%.
CS(=O)(=O)N1CCC2(CCCN(Cc3ccccn3)C2)CC1 gave 6.522%.
Cc1cc(N2CCCC2)nc(CNS(=O)(=O)Cc2ccccc2)n1 gave 13.23%.
COCCN1C(=O)[C@]2(CC[C@@H]3CN(Cc4ccccc4F)C[C@@H]32)N=C1C gave 6.25%.
Cn1cccc1C(=O)N1CC[C@H]2[C@H](CO[C@H]2CNS(C)(=O)=O)C1 gave 6.863%.
COc1cc(CNCCn2cc(C)cn2)c2c(c1)CC(C)O2 (centres undefined) gave 0.9852%.
COc1ccc(CC(C)(O)CNC(=O)NCc2cccs2)cc1 (centres undefined) gave 3.333%.
CNC(=O)c1cccnc1NCc1ccc(-n2cccn2)cc1 gave 8.642%.
Cc1ccc(CC(=O)N2CCOC(c3ncc(CN(C)C)[nH]3)C2)s1 (centres undefined) gave 8.046%.
CCn1nc2c(cc1=O)CN(c1ncnc3sccc13)CC2 gave 13.33%.
COCCn1ccnc1C1CCN(C(=O)c2cccc(COC)n2)CC1 gave 0.6369%.
Cc1oc(-c2ccc(Cl)cc2)nc1C(=O)NC1=NCCS1 gave 1.571%.
Cc1cc(NC(=O)c2ccc(CN3CC[C@H](O)C3)cc2)ccc1F gave 9.231%.
Cc1noc(C(C)C)c1C(=O)NCC(c1cccc(F)c1)N(C)C (centres undefined) gave 3.759%.
Cc1nn(C(C)(C)C)c(=O)n1CC(=O)NC(C)(C)C gave -0.5405%.
COc1cc(C)nc(N2CCN(C(C)c3nc(C4CC4)no3)CC2)n1 (centres undefined) gave 13.16%.
Cc1ccsc1C(=O)Nc1cc(Br)c(=O)n(C)c1 gave 1.111%.
Cc1cc(CN2CCN(CC(O)c3ccc(Cl)cc3)CC2)no1 (centres undefined) gave 5.143%.
CCOC(=O)c1nnc2ccccc2c1N1CCN(CC)CC1 gave 11.31%.
Cc1ccc(-c2nnc(CCC(=O)NCc3cn(C)nc3C)o2)s1 gave 5.82%.
CCn1ccnc1CN1C[C@@H](NC(=O)C2CC2)[C@H](c2ccc(C)cc2)C1 gave 0.6494%.
Cc1nc(CCN2CCCCC2)n(-c2ccc(F)cc2)n1 gave 1.932%.
O=C(CSc1nnc[nH]1)NCc1cccs1 gave 1.657%.
Cc1cccc(NC(=O)[C@@H]2CCCN2Cc2cnc3ccccn23)n1 gave 6.667%.
CN(Cc1c(F)cccc1Cl)C(=O)CN(C)C1CCc2ccccc21 (centres undefined) gave 5.882%.
O=C(CN(C1=NCCCC1)c1ccccc1)c1ccc(OC(F)F)cc1 gave 3.659%.
O=C(NCCN1CCCCC1)c1scnc1Cl gave 1.515%.
c1cn(CCn2cnnc2)c(-c2cc3n(n2)CCCNC3)n1 gave 4.372%.
COc1ccc(C)cc1CN(C)CCCNS(C)(=O)=O gave 1.754%.
O=C1CC[C@H]2CN(Cc3cccnc3)CC[C@H]2N1CCc1c[nH]cn1 gave 7.143%.
COCCOc1ncccc1C(=O)N(C)c1ccc(OC)c(OC)c1 gave -0.6024%.

3 of the entries, repeated:

| Compound | percent effect |
|---|---|
| `Cc1cc(CN2CCN(CC(O)c3ccc(Cl)cc3)CC2)no1` (centres undefined) | 5.143% |
| `Cc1oc(-c2ccc(Cl)cc2)nc1C(=O)NC1=NCCS1` | 1.571% |
| `COCCn1ccnc1C1CCN(C(=O)c2cccc(COC)n2)CC1` | 0.6369% |